The list is a part of this screen's results and no random one: it is rich in T/C values a quarter to a half above the control, in often repeated tests (any T/C) and in doses without a T/C. Further doses and runs are listed elsewhere. T/C is the treated group as % of the vehicle group. Some entries give survivors of the animals treated and no T/C: the source files T/C as zero there, which appears to mark a toxic dose or a test without result, not a measured value. Some doses without a T/C left all or most animals alive at the check, yet need not have been tolerated: the source hardly ever lists a survival T/C far under the control, and the zero likely stands for such cases as well. Counts of survivors are from the toxicity check (mostly the fifth day) where no day follows; animals may have died later. Schedule codes are those of the source, read here as Q, the interval in days (D) or hours (H), X, the number of doses. Some entries were tested several times; their values stand side by side, smallest first. For survival time, this PubChem deposit counts one and a half times the control or more as active, and values a quarter to a half above the control carry no call in these data; other NCI protocols may use other cut-offs. Some T/C values are followed by the survivors on the day toxicity was checked, most often the fifth; where none is given, no animal had died by that day. Residues, ends and D or L forms follow the SMILES beside them. *: point of attachment. Trt = c1ccc(C(c2ccccc2)(c2ccccc2)*)cc1; Cbz = O=C(OCc1ccccc1)*; Bn = c1ccc(C*)cc1; βAla = NCCC(=O)O
Test system: Lewis lung carcinoma i.m., BDF1 mice, T/C %
Experiment: NCI In Vivo Anticancer Drug Screen. Data for tumor model Lewis Lung Carcinoma (intramuscular) in B6D2F1 (BDF1) mice
Outline: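 Mice carrying transplantable tumours received test compound. Survival or tumour size was recorded and expressed as the treated-group value (T) divided by the vehicle-treated control-group value (C).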

[1] = T/C endpoint: median survival time, dose: 2.0 mg/kg/injection, schedule: Q01DX011 (ip), vehicle: other, higher T/C = longer survival
[2] = T/C endpoint: median survival time, dose: 0.5 mg/kg/injection, schedule: Q01DX011 (ip), vehicle: saline, higher T/C = longer survival
[3] = T/C endpoint: median survival time, dose: 1.0 mg/kg/injection, schedule: Q01DX011 (ip), vehicle: saline, higher T/C = longer survival
[4] = T/C endpoint: median survival time, dose: 4.0 mg/kg/injection, schedule: Q01DX011 (ip), vehicle: saline, higher T/C = longer survival

Cc1c(N)nc(C(CC(N)=O)NCC(N)C(N)=O)nc1C(=O)NC(C(=O)NC(C)C(O)C(C)C(=O)NC(C(=O)NCCc1nc(-c2nc(C(=O)NCCCNCCCCN)cs2)cs1)C(C)O)C(OC1OC(CO)C(O)C(O)C1OC1OC(CO)C(O)C(OC(N)=O)C1O)c1cnc[nH]1 (stereo not given)
T/C (T/C endpoint: median survival time, dose: 2.3 mg/kg/injection, schedule: Q01DX011 (ip), vehicle: saline, higher T/C = longer survival): 131 % of control | T/C (T/C endpoint: median survival time, dose: 6.5 mg/kg/injection, schedule: Q01DX011 (ip), vehicle: saline, higher T/C = longer survival): 147 % of control | survivor count (T/C endpoint: median survival time, dose: 30.0 mg/kg/injection, schedule: Q01DX011 (ip), vehicle: saline, higher T/C = longer survival): 7 of 8 | survivor count (T/C endpoint: median survival time, dose: 50.0 mg/kg/injection, schedule: Q01DX011 (ip), vehicle: saline, higher T/C = longer survival): 0 of 8

O=c1[nH]c(=O)n([C@H]2CCCO2)cc1F
survivor count (T/C endpoint: median survival time, dose: 108.0 mg/kg/injection, schedule: Q01DX011 (ip), vehicle: saline, higher T/C = longer survival): 3 of 8 | survivor count (T/C endpoint: median survival time, dose: 180.0 mg/kg/injection, schedule: Q01DX011 (ip), vehicle: saline, higher T/C = longer survival): 0 of 8 | survivor count (T/C endpoint: median survival time, dose: 300.0 mg/kg/injection, schedule: Q01DX011 (ip), vehicle: saline, higher T/C = longer survival): 0 of 8 | survivor count (T/C endpoint: median survival time, dose: 400.0 mg/kg/injection, schedule: Q04DX004 (ip), vehicle: other, higher T/C = longer survival): 8 of 8 | survivor count (T/C endpoint: median survival time, dose: 800.0 mg/kg/injection, schedule: Q04DX004 (ip), vehicle: other, higher T/C = longer survival): 8 of 8

NC(Cc1c[nH]c2ccc(N(CCCl)CCCl)cc12)C(=O)O (stereo not given)
T/C (T/C endpoint: median survival time, dose: 0.12 mg/kg/injection, schedule: Q01DX011 (ip), vehicle: acid diluted with saline, higher T/C = longer survival): 138 % of control | T/C (T/C endpoint: median survival time, dose: 1.0 mg/kg/injection, schedule: Q01DX011 (ip), vehicle: acid diluted with saline, higher T/C = longer survival): 133 % of control | survivor count (T/C endpoint: median survival time, dose: 2.0 mg/kg/injection, schedule: Q01DX011 (ip), vehicle: acid diluted with saline, higher T/C = longer survival): 5 of 8 | survivor count [1]: 8 of 8

CCCCNC(C)(C)COC(=O)/C=C/c1ccc(OCCCC)cc1
survivor count (T/C endpoint: median survival time, dose: 200.0 mg/kg/injection, schedule: Q01DX011 (ip), vehicle: saline with Tween-80, higher T/C = longer survival): 0 of 8

O=C1C=C(N2CC2)c2ccccc2C1=O
survivor count (T/C endpoint: mean tumor weight (est.), dose: 20.0 mg/kg/injection, schedule: Q01DX011 (ip), vehicle: saline, higher T/C = larger tumour): 4 of 8 | survivor count (T/C endpoint: median survival time, dose: 20.0 mg/kg/injection, schedule: Q01DX011 (ip), vehicle: saline, higher T/C = longer survival): 4 of 8 | survivor count (T/C endpoint: median survival time, dose: 40.0 mg/kg/injection, schedule: Q01DX011 (ip), vehicle: saline, higher T/C = longer survival): 0 of 8

Oc1c(Cl)cc(Cl)c2cccnc12
survivor count (T/C endpoint: mean tumor weight, dose: 25.0 mg/kg/injection, schedule: Q01DX011 (ip), vehicle: saline with Tween-80, higher T/C = larger tumour): 5 of 8 | survivor count (T/C endpoint: mean tumor weight, dose: 50.0 mg/kg/injection, schedule: Q01DX011 (ip), vehicle: saline with Tween-80, higher T/C = larger tumour): 4 of 8 | T/C (T/C endpoint: median survival time, dose: 12.5 mg/kg/injection, schedule: Q01DX011 (ip), vehicle: saline with Tween-80, higher T/C = longer survival): 127 % of control [6 of 8 alive] | survivor count (T/C endpoint: median survival time, dose: 25.0 mg/kg/injection, schedule: Q01DX011 (ip), vehicle: saline with Tween-80, higher T/C = longer survival): 5 of 8 | survivor count (T/C endpoint: median survival time, dose: 50.0 mg/kg/injection, schedule: Q01DX011 (ip), vehicle: saline with Tween-80, higher T/C = longer survival): 4 of 8 | survivor count (T/C endpoint: median survival time, dose: 100.0 mg/kg/injection, schedule: Q01DX011 (ip), vehicle: saline with Tween-80, higher T/C = longer survival): 0 of 8

Nc1nc(=S)c2[nH]cnc2[nH]1
survivor count (T/C endpoint: mean tumor weight, dose: 2.0 mg/kg/injection, schedule: Q01DX011 (ip), vehicle: other, higher T/C = larger tumour): 1 of 8 | T/C (T/C endpoint: median survival time, dose: 0.5 mg/kg/injection, schedule: Q01DX011 (ip), vehicle: other, higher T/C = longer survival): 126 % of control [6 of 8 alive] | survivor count (T/C endpoint: median survival time, dose: 1.0 mg/kg/injection, schedule: Q01DX011 (ip), vehicle: other, higher T/C = longer survival): 0 of 8 and 8 of 8 | survivor count (T/C endpoint: median survival time, dose: 1.5 mg/kg/injection, schedule: Q01DX011 (ip), vehicle: other, higher T/C = longer survival): 0 of 10 and 8 of 10 | survivor count [1]: 1 of 8 | survivor count (T/C endpoint: median survival time, dose: 3.0 mg/kg/injection, schedule: Q01DX011 (ip), vehicle: other, higher T/C = longer survival): 0 of 10 | survivor count (T/C endpoint: median survival time, dose: 6.0 mg/kg/injection, schedule: Q01DX011 (ip), vehicle: other, higher T/C = longer survival): 0 of 10 and 6 of 10 | survivor count (T/C endpoint: median survival time, dose: 12.0 mg/kg/injection, schedule: Q01DX011 (ip), vehicle: other, higher T/C = longer survival): 0 of 10 and 3 of 10

Nc1ccn(C2OC(COP(=O)(O)O)C(O)C2O)c(=O)n1 (stereo not given)
survivor count (T/C endpoint: mean tumor weight, dose: 32.6 mg/kg/injection, schedule: Q01DX011 (ip), vehicle: saline, higher T/C = larger tumour): 3 of 8 | survivor count (T/C endpoint: median survival time, dose: 32.6 mg/kg/injection, schedule: Q01DX011 (ip), vehicle: saline, higher T/C = longer survival): 3 of 8 | survivor count (T/C endpoint: median survival time, dose: 54.0 mg/kg/injection, schedule: Q01DX011 (ip), vehicle: saline, higher T/C = longer survival): 0 of 8 | survivor count (T/C endpoint: median survival time, dose: 90.0 mg/kg/injection, schedule: Q01DX011 (ip), vehicle: saline, higher T/C = longer survival): 0 of 8

COC(=O)C[C@](O)(CCCC(C)(C)O)C(=O)O[C@@H]1C(OC)=C[C@]23CCCN2CCc2cc4c(cc2[C@H]13)OCO4
survivor count (T/C endpoint: mean tumor weight (est.), dose: 1.0 mg/kg/injection, schedule: Q01DX011 (ip), vehicle: saline, higher T/C = larger tumour): 4 of 8 | survivor count (T/C endpoint: mean tumor weight (est.), dose: 2.0 mg/kg/injection, schedule: Q01DX011 (ip), vehicle: saline, higher T/C = larger tumour): 1 of 8 | T/C [2]: 132 % of control | survivor count [3]: 4 of 8 | survivor count (T/C endpoint: median survival time, dose: 2.0 mg/kg/injection, schedule: Q01DX011 (ip), vehicle: saline, higher T/C = longer survival): 1 of 8 | survivor count [4]: 0 of 8

C1CN1c1nc(N2CC2)nc(N2CC2)n1
T/C (T/C endpoint: median survival time, dose: 0.1 mg/kg/injection, schedule: Q01DX011 (ip), vehicle: saline, higher T/C = longer survival): 128 % of control | T/C (T/C endpoint: median survival time, dose: 0.2 mg/kg/injection, schedule: Q01DX011 (ip), vehicle: saline, higher T/C = longer survival): 126 % of control | T/C (T/C endpoint: median survival time, dose: 0.25 mg/kg/injection, schedule: Q01DX011 (ip), vehicle: saline, higher T/C = longer survival): 137 % of control | survivor count (T/C endpoint: median survival time, dose: 0.4 mg/kg/injection, schedule: Q01DX011 (ip), vehicle: saline, higher T/C = longer survival): 7 of 10 | survivor count [2]: 0 of 8 | survivor count (T/C endpoint: median survival time, dose: 0.8 mg/kg/injection, schedule: Q01DX011 (ip), vehicle: saline, higher T/C = longer survival): 1 of 10 and 8 of 10 | survivor count [3]: 0 of 8 | survivor count (T/C endpoint: median survival time, dose: 1.6 mg/kg/injection, schedule: Q01DX011 (ip), vehicle: saline, higher T/C = longer survival): 0 of 10 | survivor count (T/C endpoint: median survival time, dose: 3.2 mg/kg/injection, schedule: Q01DX011 (ip), vehicle: saline, higher T/C = longer survival): 0 of 10

FC(F)(F)c1nc2nc(Cl)c(Cl)nc2[nH]1
survivor count [4]: 7 of 8 | survivor count (T/C endpoint: median survival time, dose: 64.0 mg/kg/injection, schedule: Q01DX011 (ip), vehicle: saline, higher T/C = longer survival): 8 of 8 | survivor count (T/C endpoint: median survival time, dose: 128.0 mg/kg/injection, schedule: Q01DX011 (ip), vehicle: saline, higher T/C = longer survival): 3 of 8

COC(=O)C(CSC(c1ccccc1)(c1ccccc1)c1ccccc1)NC(=O)C(CSCc1ccccc1)NC(=O)CCNC(=O)OCc1ccccc1 (stereo not given) ({Cbz-βAla}-Cys(Bn)-Cys(Trt)-OMe; configuration not given here)
T/C (T/C endpoint: median survival time, dose: 8.0 mg/kg/injection, schedule: Q01DX009 (ip), vehicle: Klucel (hydroxypropylcellulose) (HPC), higher T/C = longer survival): 142 % of control | T/C (T/C endpoint: median survival time, dose: 16.0 mg/kg/injection, schedule: Q01DX009 (ip), vehicle: Klucel (hydroxypropylcellulose) (HPC), higher T/C = longer survival): 132 % of control

CCN(CCO)CCNc1ccc(C)c2sc3ccccc3c(=O)c12
survivor count (T/C endpoint: mean tumor weight (est.), dose: 84.0 mg/kg/injection, schedule: Q01DX011 (ip), vehicle: saline, higher T/C = larger tumour): 3 of 8 | survivor count (T/C endpoint: median survival time, dose: 84.0 mg/kg/injection, schedule: Q01DX011 (ip), vehicle: saline, higher T/C = longer survival): 3 of 8 | survivor count (T/C endpoint: median survival time, dose: 168.0 mg/kg/injection, schedule: Q01DX011 (ip), vehicle: saline, higher T/C = longer survival): 0 of 8

N[C@H](C(=O)O)[C@@H]1CC(Cl)=NO1
survivor count (T/C endpoint: median survival time, dose: 4.0 mg/kg/injection, schedule: Q01DX013 (ip), vehicle: saline, higher T/C = longer survival): 8 of 8 | survivor count (T/C endpoint: median survival time, dose: 8.0 mg/kg/injection, schedule: Q01DX013 (ip), vehicle: saline, higher T/C = longer survival): 8 of 8 | survivor count (T/C endpoint: median survival time, dose: 16.0 mg/kg/injection, schedule: Q01DX013 (ip), vehicle: saline, higher T/C = longer survival): 7 of 8 | survivor count (T/C endpoint: median survival time, dose: 32.0 mg/kg/injection, schedule: Q01DX013 (ip), vehicle: saline, higher T/C = longer survival): 4 of 8

CCN(CC)CCCC(C)Nc1c2ccccc2nc2c(Cl)cccc12 (stereo not given)
survivor count (T/C endpoint: mean tumor weight (est.), dose: 60.0 mg/kg/injection, schedule: Q01DX011 (ip), vehicle: saline, higher T/C = larger tumour): 1 of 8

Nc1ncc(N)c(N)n1
survivor count (T/C endpoint: mean tumor weight (est.), dose: 320.0 mg/kg/injection, schedule: Q01DX011 (ip), vehicle: saline, higher T/C = larger tumour): 5 of 8 | survivor count (T/C endpoint: median survival time, dose: 320.0 mg/kg/injection, schedule: Q01DX011 (ip), vehicle: saline, higher T/C = longer survival): 5 of 8

— PubChem BioAssay AID272 (DTP/NCI, 2004)
